Laboratory results: PubChem BioAssay AID504784 (Drosophila RNAi Screening Center, 2011)
Screen: 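Search for regulators of lipid droplet storage in oleate-fed fly cells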 (primary screen). Cells: Drosophila Kc167 embryonic cells. Reagents: long dsRNA against Drosophila genes, about 250 ng dsRNA per well. Time to read-out: 4 days. Challenge: cells fed 400 µM oleic acid bound to BSA. Measured: 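Microscope images give a droplet-to-nucleus area ratio, taken as log and converted to a screen-wide B-score; higher values mean greater lipid storage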. Reading the numbers: droplet/nuclear area B-score: higher = more stored lipid (overstorage).
The deposit covers about 17,000 reagents; below is a random part of those that have a named target and a result. 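Each column is one replicate's B-score; the combined score over replicates was not deposited, so single values may mislead.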 Names joined by + are all predicted targets of the reagent. Not all columns of the deposit are shown. No sequences are given here.

| droplet/nuclear area B-score, replicate 1 | gene knocked down | DRSC id |
| --- | --- | --- |
| -0.0564 | mRpL41 (GeneID 36688) | DRSC06257 |
| -0.227 | CG34277 + CG31542 | DRSC21544 |
| 2.04 | CG32148 (GeneID 251924) | DRSC09338 |
| -0.174 | CG6052 (GeneID 39971) | DRSC10574 |
| 0.0135 | CG6908 (GeneID 41410) | DRSC16131 |
| -0.816 | CG13409 (GeneID 42592) | DRSC14585 |
| -1.82 | Nepl11 (GeneID 40540) | DRSC12333 |
| 0.0963 | CG42586 + CG31775 | DRSC01413 |
| 0.447 | Sur-8 (GeneID 42093) | DRSC15794 |
| -0.676 | aralar1 (GeneID 43616) | DRSC13987 |
| -0.399 | aralar1 (GeneID 43616) | DRSC16901 |
| 0.394 | CG13731 (GeneID 39938) | DRSC10059 |
| 1.42 | CG34404 (GeneID 41873) | DRSC15335 |
| 0.943 | CG34404 (GeneID 41873) | DRSC15978 |
| 0.673 | CG30049 (GeneID 246416) | DRSC21345 |
| 0.734 | DCTN3-p24 (GeneID 46074) | DRSC04592 |
| -2.06 | Pli (GeneID 42821) | DRSC16792 |
| 0.826 | CG4972 (GeneID 34388) | DRSC02798 |
| -0.328 | CG15577 (GeneID 50378) | DRSC18065 |
| -0.775 | NijB (GeneID 40057) | DRSC09850 |
| 1.54 | CG30471 (GeneID 246633) | DRSC07096 |
| 0.322 | CG13016 (GeneID 36562) | DRSC06271 |
| 1.79 | CG32485 (GeneID 38363) | DRSC22666 |
| 5.07 | Acp29AB (GeneID 34162) | DRSC01857 |
| -0.492 | CG17982 (GeneID 31739) | DRSC18143 |
| -0.114 | Dhps (GeneID 38917) | DRSC10948 |
| -0.45 | lectin-24Db (GeneID 53550) | DRSC00553 |
| -0.197 | Nap1 (GeneID 37798) | DRSC04626 |
| -0.05 | CG18081 (GeneID 39725) | DRSC10294 |
| 0.928 | Fitm (GeneID 38596) | DRSC09772 |
| 0.0972 | Col4a1 (GeneID 33727) | DRSC03291 |
| 1.22 | knk (GeneID 47137) | DRSC15993 |
| 1.85 | Uvrag (GeneID 34735) | DRSC02932 |
| 1.07 | r (GeneID 32640) | DRSC19813 |
| 0.212 | r (GeneID 32640) | DRSC19814 |
| 0.144 | Pp2B-14D (GeneID 32624) | DRSC20270 |
| 0.748 | Pp2B-14D (GeneID 32624) | DRSC23315 |
| 1.01 | olf186-M (GeneID 37039) | DRSC07657 |
| 0.91 | jumu (GeneID 41265) | DRSC16651 |
| 0.229 | Fbxl4 (GeneID 32378) | DRSC19805 |
| 0.846 | Cyp4d14 (GeneID 45706) | DRSC18457 |
| -0.739 | mio (GeneID 33399) | DRSC00692 |
| 3.16 | mio (GeneID 33399) | DRSC22056 |
| 1.63 | snRNP-U1-C (GeneID 42274) | DRSC15804 |
| 0.00786 | Ugt37A1 (GeneID 35307) | DRSC02114 |
| -3.27 | dgt2 (GeneID 34610) | DRSC02548 |
| 0.0383 | Rcd4 (GeneID 34158) | DRSC02597 |
| 0.815 | MP1 (GeneID 40541) | DRSC12124 |
| 0.909 | exd (GeneID 32567) | DRSC20330 |
| 0.0605 | ZIPIC (GeneID 43566) | DRSC16349 |
| -0.0942 | neur (GeneID 41085) | DRSC17013 |
| -0.0907 | CG31233 (GeneID 42557) | DRSC15888 |
| 2.78 | da (GeneID 34413) | DRSC03517 |
| -0.439 | Charon (GeneID 33303) | DRSC00679 |
| -0.241 | Alms1a (GeneID 31393) | DRSC18558 |
| 0.18 | CG14540 (GeneID 43145) | DRSC14884 |
| -0.0761 | Drl-2 (GeneID 36436) | DRSC05393 |
| 1.27 | Drl-2 (GeneID 36436) | DRSC06155 |
| 2.88 | Drl-2 (GeneID 36436) | DRSC06858 |
| -1.17 | Irk2 (GeneID 42770) | DRSC15569 |
| -0.645 | S-Lap2 (GeneID 326209) | DRSC10628 |
| 0.96 | mbo (GeneID 41562) | DRSC16123 |
| -0.981 | CG9231 (GeneID 40130) | DRSC11054 |
| -0.348 | Su(var)3-3 (GeneID 40217) | DRSC10250 |
| 0.81 | S2P (GeneID 36262) | DRSC07311 |
| 2.59 | cn (GeneID 35724) | DRSC07594 |
| 0.794 | PIG-A (GeneID 37020) | DRSC06982 |
| -0.331 | rt (GeneID 39297) | DRSC11391 |
| 0.0201 | Dus2 (GeneID 32377) | DRSC19591 |
| 0.524 | bru3 (GeneID 39527) | DRSC09280 |
| -0.0253 | bru3 (GeneID 39527) | DRSC09687 |
| 1.54 | bru3 (GeneID 39527) | DRSC09887 |
| -1.77 | bru3 (GeneID 39527) | DRSC22732 |
| 1.03 | Odj (GeneID 42145) | DRSC16234 |
| 1.06 | VhaM9.7-a (GeneID 38521) | DRSC08289 |
| 1.74 | CG10182 (GeneID 42780) | DRSC14202 |
| 0.268 | CG17612 (GeneID 33639) | DRSC00505 |
| -1.84 | CG13428 (GeneID 37317) | DRSC06390 |
| 0.81 | CG9330 (GeneID 40131) | DRSC11066 |
| -1.6 | Cpr60D (GeneID 246492) | DRSC04492 |
| 1.35 | CG5697 (GeneID 42483) | DRSC15858 |
| 0.445 | UQCR-C1 (GeneID 41800) | DRSC15508 |
| 0.972 | CG9890 (GeneID 37659) | DRSC04590 |
| -0.539 | Osi23 (GeneID 43615) | DRSC15074 |
| -1.2 | GAPsec (GeneID 38987) | DRSC10564 |
| -1.23 | Agpat4 (GeneID 39819) | DRSC10446 |
| 1.16 | path (GeneID 39106) | DRSC10361 |
| 0.862 | Sar1 (GeneID 42615) | DRSC17049 |
| -1.75 | Sar1 (GeneID 42615) | DRSC22115 |
| 0.152 | Pkn (GeneID 35950) | DRSC06809 |
| 0 | Pkn (GeneID 35950) | DRSC06810 |
| -0.452 | CG4286 (GeneID 37416) | DRSC04459 |
| -2.28 | CG12071 (GeneID 43660) | DRSC14471 |
| 2.94 | CG12071 (GeneID 43660) | DRSC22972 |
| 0.00334 | SCOT (GeneID 38261) | DRSC08186 |
| -1.35 | modSP (GeneID 42032) | DRSC16726 |
| 0.16 | modSP (GeneID 42032) | DRSC16857 |
| 0.404 | modSP (GeneID 42032) | DRSC21489 |
| 0.661 | AP-2alpha (GeneID 33211) | DRSC00800 |
| 3.69 | CG46385 (GeneID 246653) | DRSC06425 |
| 2.17 | CG46385 (GeneID 246653) | DRSC06557 |
| 1.46 | wry (GeneID 33361) | DRSC00352 |
| -0.143 | wry (GeneID 33361) | DRSC00456 |
| -0.163 | wry (GeneID 33361) | DRSC22414 |
| -0.888 | CG13667 (GeneID 38956) | DRSC10028 |

17 of these entries, set out differently:
"droplet/nuclear area B-score, replicate 1",gene knocked down,DRSC id
0.673,CG30049 (GeneID 246416),DRSC21345
0.734,DCTN3-p24 (GeneID 46074),DRSC04592
-2.06,Pli (GeneID 42821),DRSC16792
0.826,CG4972 (GeneID 34388),DRSC02798
-0.328,CG15577 (GeneID 50378),DRSC18065
-0.775,NijB (GeneID 40057),DRSC09850
1.54,CG30471 (GeneID 246633),DRSC07096
0.322,CG13016 (GeneID 36562),DRSC06271
1.79,CG32485 (GeneID 38363),DRSC22666
5.07,Acp29AB (GeneID 34162),DRSC01857
-0.492,CG17982 (GeneID 31739),DRSC18143
-0.114,Dhps (GeneID 38917),DRSC10948
-0.45,lectin-24Db (GeneID 53550),DRSC00553
-0.197,Nap1 (GeneID 37798),DRSC04626
-0.05,CG18081 (GeneID 39725),DRSC10294
0.928,Fitm (GeneID 38596),DRSC09772
0.0972,Col4a1 (GeneID 33727),DRSC03291
